The list is a part of this screen's results and no random one: it is rich in T/C values a quarter to a half above the control, in often repeated tests (any T/C) and in doses without a T/C. Other doses and runs of a compound stand elsewhere. T/C gives the treated animals as a percentage of the vehicle group. Some entries give survivors of the animals treated and no T/C: the source files T/C as zero there, which appears to mark a toxic dose or a test without result, not a measured value. Some survivor counts are full or nearly so, which does not show that the dose was tolerated: survival well below the control is almost never listed, so the zero probably covers shortened survival too. Survivors were counted at the toxicity check, usually on the fifth day, unless a day is given; later deaths do not show. Schedule codes are those of the source, read here as Q, the interval in days (D) or hours (H), X, the number of doses. Some entries were tested several times; their values stand side by side, smallest first. For survival time, this PubChem deposit counts one and a half times the control or more as active, and values a quarter to a half above the control carry no call in these data; other NCI protocols may use other cut-offs. Some T/C values carry the count of animals alive at the toxicity check (mostly the fifth day); where none is given, no animal had died by that day.
System: CD2F1 mice, intracerebral L1210 leukemia, survival T/C
Test: NCI In Vivo Anticancer Drug Screen. Data for tumor model L1210 Leukemia (intracerebral) in CD2F1 (CDF1) mice
Conditions: higher T/C = longer survival
Description: The antitumor activity of compounds was measured in mice bearing transplantable tumors. Survival or tumor size were measured and the results are expressed as the measurement made in the treated group (T) divided by the measurement made in the vehicle treated control group (C). The tumor model used in this assay is L1210 Leukemia (intracerebral) in CD2F1 (CDF1) mice

[1] = T/C endpoint: median survival time, dose: 128.0 mg/kg/injection, schedule: Q01DX005 (ip), vehicle: saline with Tween-80
[2] = T/C endpoint: median survival time, dose: 256.0 mg/kg/injection, schedule: Q01DX005 (ip), vehicle: saline with Tween-80
[3] = T/C endpoint: mean survival time, dose: 64.0 mg/kg/injection, schedule: Q01DX009 (ip), vehicle: saline
[4] = T/C endpoint: mean survival time, dose: 128.0 mg/kg/injection, schedule: Q01DX009 (ip), vehicle: saline

SMILES: COS(C)(=O)=O
- T/C (T/C endpoint: median survival time, dose: 32.0 mg/kg/injection, schedule: Q01DX005 (ip), vehicle: saline): 127 % of control
- T/C (T/C endpoint: median survival time, dose: 64.0 mg/kg/injection, schedule: Q01DX005 (ip), vehicle: saline): 138 % of control

SMILES: CCCCN(C)N=Nc1c(C(N)=O)n[nH]c1C
- survivor count [1]: 4 of 6
- survivor count [2]: 2 of 6

SMILES: NC(CSC(c1ccccc1)(c1ccccc1)c1ccccc1)C(=O)O (stereo unspecified)
- T/C (T/C endpoint: median survival time, dose: 32.0 mg/kg/injection, schedule: Q01DX005 (ip), vehicle: Klucel (hydroxypropylcellulose) (HPC)): 126 % of control
- T/C (T/C endpoint: median survival time, dose: 64.0 mg/kg/injection, schedule: Q01DX005 (ip), vehicle: Klucel (hydroxypropylcellulose) (HPC)): 133 % of control
- survivor count (T/C endpoint: median survival time, dose: 128.0 mg/kg/injection, schedule: Q01DX005 (ip), vehicle: Klucel (hydroxypropylcellulose) (HPC)): 9 of 10
- survivor count (T/C endpoint: median survival time, dose: 256.0 mg/kg/injection, schedule: Q01DX005 (ip), vehicle: Klucel (hydroxypropylcellulose) (HPC)): 0 of 10

SMILES: CN(C)C1=C(N2CC2)C(=O)C(N(C)C)=C(N2CC2)C1=O
- survivor count (T/C endpoint: mean survival time, dose: 6.0 mg/kg/injection, schedule: Q04DX003 (ip), vehicle: saline): 3 of 6

SMILES: N[C@H](C(=O)O)[C@@H]1CC(Cl)=NO1
- T/C (T/C endpoint: mean survival time, dose: 2.0 mg/kg/injection, schedule: Q01DX009 (ip), vehicle: saline): 142 % of control [9 of 10 alive]
- T/C (T/C endpoint: mean survival time, dose: 4.0 mg/kg/injection, schedule: Q01DX009 (ip), vehicle: saline): 142 % of control
- T/C (T/C endpoint: mean survival time, dose: 8.0 mg/kg/injection, schedule: Q01DX009 (ip), vehicle: saline): 132 % of control
- survivor count [3]: 8 of 10
- survivor count [4]: 8 of 10

SMILES: CN(Cc1ccccc1)/N=N/c1nc[nH]c1C(N)=O
- T/C (T/C endpoint: median survival time, dose: 64.0 mg/kg/injection, schedule: Q01DX005 (ip), vehicle: saline with Tween-80): 142 % of control
- T/C [1]: 144 % of control
- T/C [2]: 135 % of control

SMILES: Nc1nc2c(c(=O)[nH]1)N(C=O)C(CNc1ccc(C(=O)N[C@@H](CCC(=O)O)C(=O)O)cc1)CN2 (stereo partly specified)
- survivor count (T/C endpoint: median survival time, dose: 1024.0 mg/kg/injection, schedule: Q01DX005 (ip), vehicle: saline): 0 of 10 and 5 of 10

SMILES: O=P1(N(CCCl)CCCl)NC(OO)CCO1 (stereo unspecified)
- survivor count (T/C endpoint: median survival time, dose: 320.0 mg/kg/injection, schedule: Q01DX001 (ip), vehicle: saline): 2 of 10

SMILES: Nc1nc(F)nc2c1ncn2C1OC(COC=O)C(OC=O)C1O (stereo unspecified) (tested in a mixture with another compound)
- T/C (T/C endpoint: mean survival time, dose: 125.0 mg/kg/injection, schedule: Q01DX009 (ip), vehicle: saline): 138 % of control [9 of 10 alive]
- T/C (T/C endpoint: mean survival time, dose: 150.0 mg/kg/injection, schedule: Q01DX009 (ip), vehicle: saline): 142 % of control

SMILES: COc1cc(C[C@H]2c3cc(OC)c(OC)cc3CCN2C)c(Oc2cc3c(cc2OC)-c2c(OC)c(OC)cc4c2[C@H](C3)N(C)CC4)cc1OC
- survivor count (T/C endpoint: median survival time, dose: 400.0 mg/kg/injection, schedule: Q01DX005 (ip), vehicle: Klucel (hydroxypropylcellulose) (HPC)): 1 of 10

SMILES: N[C@H](C(=O)O)[C@H]1ON=C(Cl)[C@@H]1O
- T/C (T/C endpoint: mean survival time, dose: 16.0 mg/kg/injection, schedule: Q01DX009 (ip), vehicle: saline): 142 % of control
- T/C (T/C endpoint: mean survival time, dose: 32.0 mg/kg/injection, schedule: Q01DX009 (ip), vehicle: saline): 142 % of control
- T/C [3]: 133 % of control
- T/C [4]: 125 % of control

Source: PubChem BioAssay AID260 (DTP/NCI, 2004)
